Patent publication US20170059578A1
No constants are given. Whether binding was seen depends on the method and setting. Some results given as binding are weak or reduced against the parent protein; the word gives no strength.

Molecular target: streptavidin (UniProt P22629)
Assay: peptide array, fluorescence signal of bound streptavidin

binding | Binder
binds | GNSFDDWLNKG [control peptide … (SEQ ID NO:10)]
binds | ASYPHPQSGQ [control peptide … (SEQ ID NO:14)]
binds | KNTFDEWLQKG [control peptide … (SEQ ID NO:15)]
binds | ASWVHPQFQN [control peptide … (SEQ ID NO:16)]
binds | SFEDYLAEYHG [control peptide … (SEQ ID NO:17)]
binds | PGWKLAG (N-terminal Pro is acetylated (*P)) [truncated peptide *PGWKLAG (SEQ ID NO:20)]
binds | ASYDHPQGGR [control peptide … (SEQ ID NO:5)]
binds | GNSFDDWLQKG [control peptide … (SEQ ID NO:6)]
binds | ASWPHPQSGM [control peptide … (SEQ ID NO:7)]
binds | ASWIHPQFQG [control peptide … (SEQ ID NO:8)]

Continued, binder first:

Binder | binding
GFEDYLGEYHG [control peptide … (SEQ ID NO:1)] | binds
WWHPQNAV [control peptide WWHPQNAV (SEQ ID NO:11)] | binds
WVHPQFQT [control peptide WVHPQFQT (SEQ ID NO:12)] | binds
RYHPQ [control peptide RYHPQ (SEQ ID NO:13)] | binds
GWTHPMFEQKG [control peptide … (SEQ ID NO:2)] | binds
WKHPQAGS [control peptide WKHPQAGS (SEQ ID NO:3)] | binds
ASWCHPQGPC [control peptide … (SEQ ID NO:4)] | binds
VWHPQSGK [control peptide VWHPQSGK (SEQ ID NO:9)] | binds
